Paper PMC6902473 (Clinical Epigenetics, 2019)
Several values for one entry are separate records, joined by “and”; a condition that tells them apart may be missing. Identical values can stand only once.

Assay: clinical
Details: human, in vivo
Source text: The assays were validated according to the common FDA and EMA guidelines on bioanalytical method validation.

Compound: O=C(CCCCCCC(=O)Nc1ccccc1)NO [vorinostat]
- Vd (214 mg/m2, Vz): 646 L
- Cmax (250 mg/m2, Cmax): 2.67 µM and 704 ng/mL
- Vz (280 mg/m2): 529 L
- Vd (280 mg/m2, Vz): 466 L
- Vz, Minimum (po, 580 mg/m2): 377 L
